The text below walks through data of patent US6521814.

Chains of the proteins cited; added tags and fusions are not shown. Lines headed by an entry give the natural chain unless they say otherwise; changes in a name come on top. A line that says so, or that is headed by a name, gives the form on record, which may keep a tag or linker. Residues count along the entry.
UniProt P28700, 140-467, stated change not applied: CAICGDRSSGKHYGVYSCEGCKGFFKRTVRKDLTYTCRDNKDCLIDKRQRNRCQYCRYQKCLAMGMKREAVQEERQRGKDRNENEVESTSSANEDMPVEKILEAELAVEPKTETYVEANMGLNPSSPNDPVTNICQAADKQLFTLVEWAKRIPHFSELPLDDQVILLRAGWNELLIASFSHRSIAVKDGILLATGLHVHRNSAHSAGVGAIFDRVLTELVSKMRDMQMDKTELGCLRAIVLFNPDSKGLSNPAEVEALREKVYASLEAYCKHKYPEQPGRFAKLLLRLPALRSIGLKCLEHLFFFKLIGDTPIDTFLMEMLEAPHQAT
UniProt P28705: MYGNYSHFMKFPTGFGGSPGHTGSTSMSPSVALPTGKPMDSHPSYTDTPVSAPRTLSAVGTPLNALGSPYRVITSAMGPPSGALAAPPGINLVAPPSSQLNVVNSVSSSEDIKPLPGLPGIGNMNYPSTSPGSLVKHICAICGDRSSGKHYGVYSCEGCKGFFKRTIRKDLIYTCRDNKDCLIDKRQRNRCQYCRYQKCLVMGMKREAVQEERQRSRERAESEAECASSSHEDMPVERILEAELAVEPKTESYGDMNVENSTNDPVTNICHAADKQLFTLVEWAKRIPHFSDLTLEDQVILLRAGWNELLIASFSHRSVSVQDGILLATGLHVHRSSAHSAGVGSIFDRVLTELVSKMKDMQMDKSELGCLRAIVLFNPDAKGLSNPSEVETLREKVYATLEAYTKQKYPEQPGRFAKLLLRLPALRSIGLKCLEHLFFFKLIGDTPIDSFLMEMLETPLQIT
RARα/RXRγ (Mus musculus), one chain, as listed by the source: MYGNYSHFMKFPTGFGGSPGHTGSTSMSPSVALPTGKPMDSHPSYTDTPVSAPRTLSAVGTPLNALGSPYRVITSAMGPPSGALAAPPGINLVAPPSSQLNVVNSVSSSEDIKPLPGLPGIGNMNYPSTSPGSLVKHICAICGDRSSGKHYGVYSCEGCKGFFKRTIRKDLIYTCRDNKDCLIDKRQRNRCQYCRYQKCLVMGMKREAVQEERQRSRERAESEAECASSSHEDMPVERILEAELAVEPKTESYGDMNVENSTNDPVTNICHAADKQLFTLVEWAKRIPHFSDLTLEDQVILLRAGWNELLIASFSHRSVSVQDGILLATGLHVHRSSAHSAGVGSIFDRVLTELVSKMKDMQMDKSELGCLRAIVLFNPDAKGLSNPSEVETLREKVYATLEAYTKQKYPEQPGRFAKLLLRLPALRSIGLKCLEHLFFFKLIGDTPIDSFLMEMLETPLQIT

For part of these data: Negatives hold for the conditions tested. For part of these data: The comparison behind a weaker result is the experiment's own reference, which may not be listed here. For part of these data: Protein sequences can lack the tags named with them. For part of these data: Construct, isoform or probe ends are uncertain for at least one entry. For part of these data: Results from cells or extracts need not show a direct contact.

Data set [1] concerns RARα-containing complex of MMQ nuclear extract (Rattus norvegicus). The data set can be described thus: EMSA. Conditions: protein in an extract, protein details: endogenous, MMQ rat pituitary cells.
The subject of data set [2] is RARα/RXRγ (Mus musculus). The data set can be described thus: activity in cells. Conditions: protein in cells, protein details: pSG5 expression vectors, COS-1 cells.
In data set [3] the target is T1, RARα(ΔAB) (Mus musculus) (UniProt P11416).
T1 sequence (looked up, limits assumed): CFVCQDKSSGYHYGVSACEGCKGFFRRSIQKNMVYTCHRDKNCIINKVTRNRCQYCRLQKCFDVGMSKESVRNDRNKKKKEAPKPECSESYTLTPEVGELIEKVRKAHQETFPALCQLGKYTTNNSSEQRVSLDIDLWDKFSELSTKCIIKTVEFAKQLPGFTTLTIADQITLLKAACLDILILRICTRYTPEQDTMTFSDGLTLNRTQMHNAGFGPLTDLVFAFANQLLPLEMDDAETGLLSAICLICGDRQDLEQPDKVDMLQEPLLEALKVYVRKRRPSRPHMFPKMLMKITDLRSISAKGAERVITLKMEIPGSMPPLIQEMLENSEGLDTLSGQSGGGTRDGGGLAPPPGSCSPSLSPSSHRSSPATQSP
The data set can be described thus: EMSA. Conditions: binds poorly alone; purified recombinant protein; protein details: ΔAB truncation, bacterially expressed; label: 32P.

Data set [4] addresses RXRα(ΔAB) (Mus musculus) (UniProt P28700). The data set can be described thus: EMSA. Conditions: binds poorly alone; purified recombinant protein; protein details: ΔAB truncation, bacterially expressed; label: 32P.
Data set [5] concerns the target T2, RARα (Mus musculus) (UniProt P11416).
T2 sequence (looked up, limits assumed): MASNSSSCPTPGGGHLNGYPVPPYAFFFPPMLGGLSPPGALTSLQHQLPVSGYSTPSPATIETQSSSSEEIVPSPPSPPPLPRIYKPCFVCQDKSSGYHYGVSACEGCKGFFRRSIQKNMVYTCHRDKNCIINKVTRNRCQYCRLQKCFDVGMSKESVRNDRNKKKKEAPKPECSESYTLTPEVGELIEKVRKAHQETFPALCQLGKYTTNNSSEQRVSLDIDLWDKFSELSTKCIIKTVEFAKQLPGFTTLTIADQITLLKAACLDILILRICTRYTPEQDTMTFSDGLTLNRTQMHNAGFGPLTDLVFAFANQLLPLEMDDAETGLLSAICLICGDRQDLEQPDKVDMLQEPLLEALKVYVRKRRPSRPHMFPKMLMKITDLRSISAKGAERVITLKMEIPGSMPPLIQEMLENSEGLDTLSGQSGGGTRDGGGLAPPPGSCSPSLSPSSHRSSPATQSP
Description: activity in cells. The following applies: C1 CAT reporter, t-RA; protein in cells; protein details: pSG5 expression vector, COS-1 cells.

In data set [6] the target is RXRγ (Mus musculus) (UniProt P28705). Description: activity in cells. Conditions: C1 CAT reporter, 9-cis-RA; protein in cells; protein details: pSG5 expression vector, COS-1 cells.

For the sequence “AGCTTCCTCGGTGCGAGGGGTACGCCGCG (double strand) [D2m1]”, the binding result in data set [1] (no retarded complex, variant of RARE D2) was “no binding”. For the same sequence, the “activity on this sequence” value in data set [2] (C4 reporter, no detectable CAT activity with t-RA and 9-cis-RA, variant of RARE D2, only the site is given) is “not active”.

On to “AGCTTCCTCGTGGCCAGGGTGACCCCGCG (double strand) [RARE D2]”, for which the binding result is on record as “binds more weakly” in data set [3]; “binds” in data set [1] (supershifted by RARα monoclonal antibody, label: 32P); “binds more weakly” in data set [4].

Regarding “GATCTGCTCTGCCCAAGTCTTCCTCTCAGAAAGCACAACAGCAGAACGAACTGCTGTGATTTTCAGACCTGAGGTCTGTACACCGACTCTGGATATCCTTCCGGAATCTATTTCTCCTTTAAAGACTTGATGTACCACATGTAGTGCTTCAGCTAGCCCTTGGCCCTGACTCCTCAAAGGAGGGGATCGACCCGCTGGTGTTGTGATTGCTAGACCAGAGTAGGTTTGGATGGGCAGAGTGTTACTTAAAAAGTATAGGATGACACCGGCGAGCAGTCCGGAGCACAGGCTATCCCCACTCAAAGCCAGAGATGGATTCTCGGTCTCAGCTCTCAAGGTTCCTTCCCCAGGCCCCACAGTGCAGAGATAGTTCTGGGGCCCTGGGTGGGTGGGGCCTCTGTACAAGGGGCGGGGTTCCCGGGCGCCTCGTGGCCAGGGTGACCCCGCCCCCTCCTCCTGCGCAGCGCTCTGATTCCGCGGAGCTGTCCAGCCTCAGTGCCGGAGCTGGTCGCCTCTTGTGCGCAGCGCCTCCTGCCCGCC (double strand) [D2R promoter (C1 reporter, -495 to +273)]”, the activity on this sequence in data set [5] came out at 16 fold; in data set [2] (C1 CAT reporter, t-RA and 9-cis-RA), 45 fold; in data set [6], 9 fold.

Take “GGGTAGGGTTCACCGAAAGTTCACTG (double strand) [RAREβ2]”: the binding result in data set [1] (6 µg MMQ nuclear extract) is on record as “binds”.
